Laboratory results: PubChem BioAssay AID1053208 (Peter MacCallum Cancer Centre, 2014)
Screen: 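Find knock-downs that sensitise mouse osteosarcoma cells to doxorubicin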 (primary screen). Cell system: mouse osteosarcoma cells, early-passage culture from an engineered mouse model of fibroblastic bone tumour. Knock-down reagent: siRNA pool against mouse genes, 40 nM. Duration: about 120 h (48 h before drug, then 72 h with drug). Conditions: doxorubicin 100 nM for 72 h, roughly 30-40% inhibitory dose. Measured: 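Luminescent ATP signal taken as viability with or without 100 nM doxorubicin for 72 h; mean of two wells set against non-targeting siRNA and turned into robust z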. Scale: viability z-score with doxorubicin and doxorubicin viability vs non-targeting: higher = more viable cells under doxorubicin; viability z-score without drug: higher = more viable cells with knock-down alone; z-score of drug to no-drug ratio: higher = less drug sensitisation by knock-down. Hit rule: 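a pool counts as active when its viability z-score with doxorubicin is -2 or below and its z-score without drug lies between -2 and 2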.
In all, the deposit lists about 17,000 reagents; this is an unselected part. 788 of them (4.7%) count as active. 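Calls rest on z-score classes alone; an extra cut-off of viability at most 70% of control was not applied to them.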 Reagent sequences are not shown.

| Gene | combined z-score class | viability z-score with doxorubicin | viability z-score without drug | z-score of drug to no-drug ratio | doxorubicin viability vs non-targeting | activity call |
| --- | --- | --- | --- | --- | --- | --- |
| Adipor2 | no change with or without drug | -1.24 | -0.17 | -1.12 | 0.83 | inactive |
| Or7d10 | high cell count without drug only | 0.56 | 2.19 | -0.67 | 0.99 | inactive |
| Pth | no change with or without drug | 1.01 | -0.67 | 1.69 | 1.03 | inactive |
| Slc25a35 | no change with or without drug | 0.11 | 0.17 | 0.11 | 0.95 | inactive |
| Nmrk1 | no change with or without drug | 0.79 | 1.52 | -0.11 | 1.01 | inactive |
| Zfp521 | no change with or without drug | 0.45 | 0.51 | 0.22 | 0.98 | inactive |
| Pgap4 | no change with or without drug | -1.57 | -0.67 | -1.12 | 0.8 | inactive |
| Thap12 | no change with or without drug | -0.56 | -0.34 | -0.22 | 0.89 | inactive |
| Or4c12 | no change with or without drug | -0.67 | -0.51 | -0.22 | 0.88 | inactive |
| Armc1 | no change with or without drug | 0.34 | -0.17 | 0.56 | 0.97 | inactive |
| Ptpn14 | no change with or without drug | 0.34 | 0.51 | 0.11 | 0.97 | inactive |
| Trpv3 | no change with or without drug | 0.45 | 1.52 | -0.45 | 0.98 | inactive |
| Dtd2 | low cell count without drug only | -1.35 | -2.87 | 0.79 | 0.82 | inactive |
| Hyal3 | no change with or without drug | 0.22 | -0.84 | 1.01 | 0.96 | inactive |
| Krt13 | no change with or without drug | -0.79 | -0.17 | -0.56 | 0.87 | inactive |
| Dok5 | no change with or without drug | 0.45 | -1.18 | 1.46 | 0.98 | inactive |
| Pcbp4 | no change with or without drug | -1.35 | -0.51 | -1.01 | 0.82 | inactive |
| Sox21 | no change with or without drug | -0.22 | -1.18 | 0.79 | 0.92 | inactive |
| Or2ag1 | no change with or without drug | -1.01 | -0.67 | -0.56 | 0.85 | inactive |
| Boll | no change with or without drug | 0 | -0.84 | 0.67 | 0.94 | inactive |
| Uba5 | no change with or without drug | 1.12 | 0.84 | 0.67 | 1.04 | inactive |
| Rgcc | high cell count without drug only | 1.46 | 3.88 | -0.79 | 1.07 | inactive |
| Itch | no change with or without drug | -0.67 | -0.84 | 0 | 0.88 | inactive |
| Gprc5d | no change with or without drug | 0.34 | -0.34 | 0.67 | 0.97 | inactive |
| Klhl24 | no change with or without drug | -1.46 | 1.69 | -2.36 | 0.81 | inactive |
| Atp5mc1 | no change with or without drug | -0.56 | -1.35 | 0.45 | 0.89 | inactive |
| Or2b2b | no change with or without drug | -1.8 | -1.18 | -1.01 | 0.78 | inactive |
| Esrp1 | high without drug; low with doxorubicin | -2.7 | 3.54 | -4.27 | 0.7 | inactive |
| Fsd2 | high cell count without drug only | 0.45 | 2.7 | -1.12 | 0.98 | inactive |
| Ubqln3 | no change with or without drug | -1.12 | 0.34 | -1.24 | 0.84 | inactive |
| Hcn2 | no change with or without drug | 0 | 0.17 | 0 | 0.94 | inactive |
| 5330439B14Rik | high cell count with doxorubicin only | 2.7 | 1.52 | 1.69 | 1.18 | inactive |
| Pou6f2 | no change with or without drug | 0 | 0.67 | -0.34 | 0.94 | inactive |
| Alx4 | no change with or without drug | 1.12 | -1.18 | 2.25 | 1.04 | inactive |

2 entries already listed, arranged by “viability z-score with doxorubicin”, lowest first:
| Gene | combined z-score class | viability z-score with doxorubicin | viability z-score without drug | z-score of drug to no-drug ratio | doxorubicin viability vs non-targeting | activity call |
| --- | --- | --- | --- | --- | --- | --- |
| Ubqln3 | no change with or without drug | -1.12 | 0.34 | -1.24 | 0.84 | inactive |
| Hcn2 | no change with or without drug | 0 | 0.17 | 0 | 0.94 | inactive |
